No constants are given. Whether binding was seen depends on the method and setting. Some results given as binding are weak or reduced against the parent protein; the word gives no strength.
B1: DOM16-32 (protein)
VL: DIQMTQSPSSLSASVGDRVTITCRASKMIDENLAWYQQKPGKAPKLLILRSSGLQSGVPSRFSGSGSGTDFTLTISSLQPEDFATYYCHQGHSAPGTFGQGTKVEIKR
B2: DOM16-52 (protein)
VH: EVQLLESGGGLVQPGGSLRLSCAASGFTFAEQPMTWARQAPGKGLEWVSSISSFGDLTYYADSVKGRFTISRDNSKNTLYLQMNSLRAEDTAVYYCAKGVYRISRFDYWGQGTLVTVSS
B3: DOM16-80 (protein)
chain: DIQMTQSPSSLSASVGDRVTITCRASQNIYMNLEWYQQKPGKAPKLLIVFGSWLQSGVPSRFSGSGSGTDFTLTISSLQPEDFATYYCRQTEAPPSTFGQGTKVEIKR
B4: DOM16-72 (protein)
VL: DIQMTQSPSSLSASVGDRVTITCRASQHIGVSLDWYQQKPGKAPKLLIYYGSELQSGVPSRFSGSGSGTDFTLTISSLQPEDFATYYCQQYVTHPTTFGQGTKVEIKR
B5: DOM16-79 (protein)
chain: DIQMTQSPSSLSASVGDRVTITCRASQWIGILLDWYQQKPGEAPKLLIYYASFLQSGVPSRFSGSGSGTDFTLTISSLQPEDFATYYCQRSDLSPLTFGQGTKVEIKR
B6: DOM16-112 (protein)
chain: DIQMTQSPSSLSASVGDRVTITCRASQNIGTNLKWYQQKPEKAPKLLIYYGSLLQSGVPSRFSGSGSGTDFTLTISSLQPEDFATYYCQQDYDFPYTFGQGTKVEIKR

Target: EGFR (form not stated; KD column of Table 3 and BIAcore epitope mapping) (UniProt P00533)
Assay: competitive binding assay, BIAcore biosensor; reference DOM16-39-200

binding, binds:
B1
B2
B3

Target: EGFR (form not stated; KD column of Table 3 and BIAcore epitope mapping) (UniProt P00533)
Assay: competitive binding assay, BIAcore biosensor; competitor DOM16-39-200

binding, binds:
B4
B5
B6

From US20100056439A1 (DOMANTIS, published 2010)
